Measured values published in the supplement of paper PMC10849652.
This is one part of the list.

By UniProt entry, the sequences of proteins in these tests, tags left out. Where a name states a change or a piece, a line headed by the entry shows the natural chain unless it says otherwise.
UniProt O94992, whole entry, looked up: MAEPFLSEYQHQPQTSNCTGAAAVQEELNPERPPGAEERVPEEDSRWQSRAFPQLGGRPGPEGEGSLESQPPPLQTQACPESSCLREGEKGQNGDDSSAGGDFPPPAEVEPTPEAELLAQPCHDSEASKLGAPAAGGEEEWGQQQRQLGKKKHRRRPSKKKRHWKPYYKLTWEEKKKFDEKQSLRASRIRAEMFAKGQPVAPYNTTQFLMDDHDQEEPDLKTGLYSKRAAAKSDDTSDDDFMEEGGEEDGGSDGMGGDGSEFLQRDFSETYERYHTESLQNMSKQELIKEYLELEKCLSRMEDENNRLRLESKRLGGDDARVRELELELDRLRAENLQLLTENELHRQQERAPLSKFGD
UniProt O14979: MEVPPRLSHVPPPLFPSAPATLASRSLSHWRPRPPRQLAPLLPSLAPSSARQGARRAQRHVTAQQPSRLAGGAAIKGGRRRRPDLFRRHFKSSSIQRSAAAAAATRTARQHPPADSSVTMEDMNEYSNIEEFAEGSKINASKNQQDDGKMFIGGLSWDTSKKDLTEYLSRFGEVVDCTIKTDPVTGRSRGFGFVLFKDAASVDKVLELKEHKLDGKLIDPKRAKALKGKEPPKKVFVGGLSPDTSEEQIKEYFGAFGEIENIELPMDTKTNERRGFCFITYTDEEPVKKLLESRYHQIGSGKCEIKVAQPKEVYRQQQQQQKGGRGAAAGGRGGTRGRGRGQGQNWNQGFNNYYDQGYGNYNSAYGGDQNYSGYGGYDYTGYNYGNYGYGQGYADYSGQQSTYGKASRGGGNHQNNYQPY
UniProt P48723: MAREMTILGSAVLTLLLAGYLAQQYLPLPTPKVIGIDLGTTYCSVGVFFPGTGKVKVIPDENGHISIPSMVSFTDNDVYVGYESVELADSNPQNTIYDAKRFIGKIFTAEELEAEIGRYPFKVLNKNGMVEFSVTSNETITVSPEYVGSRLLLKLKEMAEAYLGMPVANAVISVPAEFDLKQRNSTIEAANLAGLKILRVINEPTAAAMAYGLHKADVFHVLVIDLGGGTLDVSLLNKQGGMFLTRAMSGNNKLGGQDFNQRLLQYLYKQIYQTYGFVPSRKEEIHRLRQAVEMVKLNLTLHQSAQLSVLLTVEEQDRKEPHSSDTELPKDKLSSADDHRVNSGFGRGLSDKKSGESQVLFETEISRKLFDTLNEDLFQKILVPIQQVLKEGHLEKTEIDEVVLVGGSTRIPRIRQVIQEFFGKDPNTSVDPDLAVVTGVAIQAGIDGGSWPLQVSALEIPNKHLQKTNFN
UniProt P09651: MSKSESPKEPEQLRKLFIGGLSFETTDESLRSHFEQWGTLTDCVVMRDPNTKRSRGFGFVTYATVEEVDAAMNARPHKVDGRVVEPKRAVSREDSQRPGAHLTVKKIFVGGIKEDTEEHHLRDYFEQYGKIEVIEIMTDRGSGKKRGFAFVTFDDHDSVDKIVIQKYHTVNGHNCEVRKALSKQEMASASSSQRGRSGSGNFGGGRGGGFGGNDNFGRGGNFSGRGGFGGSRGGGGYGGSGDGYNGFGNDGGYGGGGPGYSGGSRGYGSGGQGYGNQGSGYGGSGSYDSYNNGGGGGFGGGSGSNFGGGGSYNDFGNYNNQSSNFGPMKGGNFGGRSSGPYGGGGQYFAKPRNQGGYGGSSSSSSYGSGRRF
UniProt Q8TDG4: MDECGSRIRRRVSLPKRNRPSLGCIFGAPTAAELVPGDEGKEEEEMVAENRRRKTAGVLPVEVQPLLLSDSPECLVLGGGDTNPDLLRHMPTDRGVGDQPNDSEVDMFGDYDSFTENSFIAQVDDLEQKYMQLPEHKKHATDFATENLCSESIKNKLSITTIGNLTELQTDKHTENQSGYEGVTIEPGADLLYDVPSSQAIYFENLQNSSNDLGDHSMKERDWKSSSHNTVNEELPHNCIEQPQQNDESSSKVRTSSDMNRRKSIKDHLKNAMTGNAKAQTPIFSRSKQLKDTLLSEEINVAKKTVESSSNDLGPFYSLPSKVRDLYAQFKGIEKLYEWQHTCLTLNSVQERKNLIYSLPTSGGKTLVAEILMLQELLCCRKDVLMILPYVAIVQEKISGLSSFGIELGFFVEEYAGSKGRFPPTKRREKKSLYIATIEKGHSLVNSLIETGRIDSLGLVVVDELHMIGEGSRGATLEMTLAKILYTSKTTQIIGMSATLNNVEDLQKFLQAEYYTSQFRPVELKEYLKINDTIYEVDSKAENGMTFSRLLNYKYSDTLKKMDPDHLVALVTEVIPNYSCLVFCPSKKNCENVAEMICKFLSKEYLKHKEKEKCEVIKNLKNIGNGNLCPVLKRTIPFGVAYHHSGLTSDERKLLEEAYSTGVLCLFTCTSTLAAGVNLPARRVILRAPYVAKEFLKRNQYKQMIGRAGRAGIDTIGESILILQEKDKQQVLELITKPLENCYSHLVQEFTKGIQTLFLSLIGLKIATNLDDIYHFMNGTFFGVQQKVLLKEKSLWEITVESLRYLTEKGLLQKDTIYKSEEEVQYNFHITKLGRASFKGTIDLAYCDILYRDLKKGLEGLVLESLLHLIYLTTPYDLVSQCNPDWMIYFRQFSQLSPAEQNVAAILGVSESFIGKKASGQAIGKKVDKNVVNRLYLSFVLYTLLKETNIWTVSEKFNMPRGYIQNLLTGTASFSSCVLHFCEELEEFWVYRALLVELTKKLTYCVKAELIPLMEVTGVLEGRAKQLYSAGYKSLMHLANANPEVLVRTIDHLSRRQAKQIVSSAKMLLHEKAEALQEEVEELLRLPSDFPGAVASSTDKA
UniProt Q9NWT6: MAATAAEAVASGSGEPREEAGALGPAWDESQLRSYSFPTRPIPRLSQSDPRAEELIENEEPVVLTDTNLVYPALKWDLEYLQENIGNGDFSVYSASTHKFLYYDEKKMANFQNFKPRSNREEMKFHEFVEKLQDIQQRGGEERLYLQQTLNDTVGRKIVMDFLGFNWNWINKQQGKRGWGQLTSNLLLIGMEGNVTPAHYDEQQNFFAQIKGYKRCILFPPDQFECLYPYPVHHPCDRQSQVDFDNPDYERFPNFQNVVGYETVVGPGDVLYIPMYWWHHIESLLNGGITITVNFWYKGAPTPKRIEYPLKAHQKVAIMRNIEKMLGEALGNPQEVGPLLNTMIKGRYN
UniProt P42694: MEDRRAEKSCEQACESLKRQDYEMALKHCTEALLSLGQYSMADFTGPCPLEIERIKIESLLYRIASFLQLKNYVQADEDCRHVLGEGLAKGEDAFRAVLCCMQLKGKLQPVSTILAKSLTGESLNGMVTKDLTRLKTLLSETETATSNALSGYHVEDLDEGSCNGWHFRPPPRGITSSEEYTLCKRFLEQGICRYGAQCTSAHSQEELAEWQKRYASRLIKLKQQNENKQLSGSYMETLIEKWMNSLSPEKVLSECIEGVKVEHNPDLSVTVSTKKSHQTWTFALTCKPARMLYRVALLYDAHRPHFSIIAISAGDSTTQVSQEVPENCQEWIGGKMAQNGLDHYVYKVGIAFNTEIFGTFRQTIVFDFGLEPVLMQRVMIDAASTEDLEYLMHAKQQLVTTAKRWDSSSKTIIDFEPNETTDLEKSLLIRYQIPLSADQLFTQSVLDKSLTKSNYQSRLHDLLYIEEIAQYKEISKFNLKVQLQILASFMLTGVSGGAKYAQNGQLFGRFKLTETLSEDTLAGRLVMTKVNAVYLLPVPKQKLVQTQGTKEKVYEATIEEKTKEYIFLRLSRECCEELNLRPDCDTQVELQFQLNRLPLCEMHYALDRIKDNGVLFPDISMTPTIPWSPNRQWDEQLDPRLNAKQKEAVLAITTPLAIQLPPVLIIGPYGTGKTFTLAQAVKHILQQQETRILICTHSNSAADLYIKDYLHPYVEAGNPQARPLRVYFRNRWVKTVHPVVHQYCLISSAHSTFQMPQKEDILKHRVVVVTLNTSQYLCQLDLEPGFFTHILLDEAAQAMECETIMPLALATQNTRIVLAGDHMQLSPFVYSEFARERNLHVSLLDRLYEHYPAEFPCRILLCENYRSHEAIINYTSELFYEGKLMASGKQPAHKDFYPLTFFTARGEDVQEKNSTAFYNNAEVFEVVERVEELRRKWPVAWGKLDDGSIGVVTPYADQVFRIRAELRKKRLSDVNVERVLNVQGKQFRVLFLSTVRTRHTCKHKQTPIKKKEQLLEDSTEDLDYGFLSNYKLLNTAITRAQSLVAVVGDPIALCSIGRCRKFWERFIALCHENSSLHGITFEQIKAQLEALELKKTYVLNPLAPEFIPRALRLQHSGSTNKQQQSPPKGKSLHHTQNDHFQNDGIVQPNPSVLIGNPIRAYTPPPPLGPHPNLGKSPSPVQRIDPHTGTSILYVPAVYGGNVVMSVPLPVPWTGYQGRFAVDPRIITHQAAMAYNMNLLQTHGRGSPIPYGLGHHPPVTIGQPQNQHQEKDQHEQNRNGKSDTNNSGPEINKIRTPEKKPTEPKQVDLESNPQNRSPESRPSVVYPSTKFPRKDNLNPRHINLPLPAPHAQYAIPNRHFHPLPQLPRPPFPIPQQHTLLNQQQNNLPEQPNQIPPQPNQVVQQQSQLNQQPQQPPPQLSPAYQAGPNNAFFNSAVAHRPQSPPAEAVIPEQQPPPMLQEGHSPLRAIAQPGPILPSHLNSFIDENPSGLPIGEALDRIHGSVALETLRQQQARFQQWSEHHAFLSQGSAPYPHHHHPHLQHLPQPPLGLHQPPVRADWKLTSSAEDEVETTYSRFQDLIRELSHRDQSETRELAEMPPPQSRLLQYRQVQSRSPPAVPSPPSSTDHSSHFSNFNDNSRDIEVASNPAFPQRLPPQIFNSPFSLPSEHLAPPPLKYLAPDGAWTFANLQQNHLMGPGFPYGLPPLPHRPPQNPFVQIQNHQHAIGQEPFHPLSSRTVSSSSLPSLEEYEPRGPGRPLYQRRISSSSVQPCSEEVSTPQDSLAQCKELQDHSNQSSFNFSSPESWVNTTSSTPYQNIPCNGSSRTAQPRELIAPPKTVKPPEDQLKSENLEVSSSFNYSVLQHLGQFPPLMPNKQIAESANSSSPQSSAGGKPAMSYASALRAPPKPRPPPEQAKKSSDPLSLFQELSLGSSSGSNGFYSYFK
UniProt Q53FT3: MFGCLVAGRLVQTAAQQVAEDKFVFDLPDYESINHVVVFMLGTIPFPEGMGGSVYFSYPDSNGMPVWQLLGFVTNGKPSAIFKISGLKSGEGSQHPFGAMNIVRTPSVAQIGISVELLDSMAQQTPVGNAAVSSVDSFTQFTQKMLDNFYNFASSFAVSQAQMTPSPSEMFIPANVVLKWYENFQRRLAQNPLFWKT
UniProt Q9BUJ2: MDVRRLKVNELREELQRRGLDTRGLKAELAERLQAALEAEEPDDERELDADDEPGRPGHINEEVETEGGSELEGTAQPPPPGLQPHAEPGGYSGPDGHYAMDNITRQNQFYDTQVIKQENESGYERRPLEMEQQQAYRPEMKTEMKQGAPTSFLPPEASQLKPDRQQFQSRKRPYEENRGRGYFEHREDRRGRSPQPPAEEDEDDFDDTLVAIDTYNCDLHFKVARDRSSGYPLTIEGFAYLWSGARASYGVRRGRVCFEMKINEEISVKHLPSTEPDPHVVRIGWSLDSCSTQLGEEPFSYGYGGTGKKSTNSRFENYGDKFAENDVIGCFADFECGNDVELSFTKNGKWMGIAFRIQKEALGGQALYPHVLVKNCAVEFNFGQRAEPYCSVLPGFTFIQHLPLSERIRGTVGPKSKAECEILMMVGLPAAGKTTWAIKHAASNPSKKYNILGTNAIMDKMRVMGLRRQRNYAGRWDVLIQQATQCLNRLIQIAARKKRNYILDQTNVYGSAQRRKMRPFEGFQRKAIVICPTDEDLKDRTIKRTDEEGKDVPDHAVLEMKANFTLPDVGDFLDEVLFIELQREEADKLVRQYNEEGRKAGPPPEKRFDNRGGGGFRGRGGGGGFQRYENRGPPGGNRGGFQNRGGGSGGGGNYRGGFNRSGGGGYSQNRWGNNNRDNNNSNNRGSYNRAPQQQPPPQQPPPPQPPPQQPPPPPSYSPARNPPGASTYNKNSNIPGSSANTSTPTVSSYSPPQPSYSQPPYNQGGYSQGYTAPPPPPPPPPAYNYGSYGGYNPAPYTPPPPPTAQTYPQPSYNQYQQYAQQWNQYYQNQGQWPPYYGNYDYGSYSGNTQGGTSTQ
UniProt H0YH80: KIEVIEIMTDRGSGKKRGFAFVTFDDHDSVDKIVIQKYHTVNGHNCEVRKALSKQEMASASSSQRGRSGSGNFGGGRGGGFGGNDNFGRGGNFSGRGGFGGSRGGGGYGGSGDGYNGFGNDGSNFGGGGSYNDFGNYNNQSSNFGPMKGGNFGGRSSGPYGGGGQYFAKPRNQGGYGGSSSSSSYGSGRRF
UniProt Q8NBQ5: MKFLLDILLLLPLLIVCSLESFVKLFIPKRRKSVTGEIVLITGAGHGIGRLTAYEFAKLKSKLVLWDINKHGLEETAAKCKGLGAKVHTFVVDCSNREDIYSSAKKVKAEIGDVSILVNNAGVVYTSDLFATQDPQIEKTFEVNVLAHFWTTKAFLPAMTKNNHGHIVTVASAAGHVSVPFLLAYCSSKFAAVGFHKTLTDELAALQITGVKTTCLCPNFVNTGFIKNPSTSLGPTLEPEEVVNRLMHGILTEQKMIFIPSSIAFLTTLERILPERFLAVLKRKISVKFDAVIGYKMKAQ

compound: COc1cc(Nc2ncc3c(n2)-c2ccc(Cl)cc2C(c2c(F)cccc2OC)=NC3)ccc1C(=O)O [alisertib]; assay: log2 fold change, soluble protein after heating vs DMSO (PISA); higher = thermal stabilisation; K562 lysate, 10 uM; active = over 0.2 and 3.5 SD of the protein, either way, in both replicates (recomputed)
Method in brief: (§1)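 K562 pellets were dounce-homogenised in PBS pH 7.4 containing 1 mM MgCl2, and the crude extract, at 1 mg/mL protein, was exposed to 10 μM compound for 30 min. Aliquots were heated for 3 min across 48°C-58°C, pooled, brought to 0.5% NP-40 at 4°C and spun at 21,000xg for 90 min, with the supernatant taken as soluble protein. TMTpro 16plex LC-MS/MS with equalised channel sums quantified that protein. Values are log-two fold changes in thermal stability relative to solvent controls, taken from duplicates.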

log2 fold change, inactive:
HSPA14 (UniProt Q0VDF9) 0.028
HEXIM1 (UniProt O94992) 0.03
HNRNPR (UniProt O43390) -0.137
HINT3 (UniProt Q9NQE9) -0.015
HMGN1 (UniProt P05114) 0.006
HNRNPDL (UniProt O14979) 0.04
HEMGN (UniProt Q9BXL5) -0.009
HMGCL (UniProt P35914) -0.031
HSPA13 (UniProt P48723) 0.032
HNRNPA1 (UniProt P09651) 0.011
HELQ (UniProt Q8TDG4) 0.132
HIF1AN (UniProt Q9NWT6) -0.132
HM13 isoform 2 (UniProt Q8TCT9) 0.01
HSD17B10 (UniProt Q99714) 0.013
HMG20A (UniProt Q9NP66) 0.01
HP1BP3 (UniProt Q5SSJ5) -0.021
HELZ (UniProt P42694) 0.02
HEPH isoform 3 (UniProt Q9BQS7) -0.059
HPRT1 (UniProt P00492) 0.013
HIKESHI (UniProt Q53FT3) 0.038
HNRNPUL1 (UniProt Q9BUJ2) -0.012
HNRNPA1 (UniProt H0YH80) 0.035
HNRNPA0 (UniProt Q13151) 0.005
HNRNPH1 (UniProt P31943) -0.006
HSD17B11 (UniProt Q8NBQ5) -0.025
HERC4 (UniProt Q5GLZ8) -0.008
HSDL1 (UniProt Q3SXM5) -0.008
HMGB1 (UniProt P09429) -0.043
HSF1 (UniProt Q00613) 0.004
HECTD3 (UniProt Q5T447) -0.015
HNRNPAB isoform 3 (UniProt Q99729) -0.035

compound: COc1cc2nc(-c3cc(F)ccc3O)nc(N[C@@H]3CNC[C@H]3C(C)(C)O)c2cc1OC; assay: as above
Method in brief: as §1

log2 fold change, inactive:
HSPA14 (UniProt Q0VDF9) 0
HEXIM1 (UniProt O94992) 0.041
HNRNPR (UniProt O43390) -0.012
HINT3 (UniProt Q9NQE9) -0.036
HMGN1 (UniProt P05114) 0.006
HNRNPDL (UniProt O14979) -0.005
HEMGN (UniProt Q9BXL5) -0.011
HMGCL (UniProt P35914) -0.016
HSPA13 (UniProt P48723) 0.008
HNRNPA1 (UniProt P09651) 0.007
HELQ (UniProt Q8TDG4) -0.041
HIF1AN (UniProt Q9NWT6) -0.012
HM13 isoform 2 (UniProt Q8TCT9) 0.024
HSD17B10 (UniProt Q99714) -0.009
HMG20A (UniProt Q9NP66) 0.066
HP1BP3 (UniProt Q5SSJ5) -0.007
HELZ (UniProt P42694) 0.063
HEPH isoform 3 (UniProt Q9BQS7) -0.012
HPRT1 (UniProt P00492) -0.03
HIKESHI (UniProt Q53FT3) -0.009
HNRNPUL1 (UniProt Q9BUJ2) 0.007
HNRNPA1 (UniProt H0YH80) -0.022
HNRNPA0 (UniProt Q13151) -0.018
HNRNPH1 (UniProt P31943) 0
HSD17B11 (UniProt Q8NBQ5) 0.002
HERC4 (UniProt Q5GLZ8) -0.001
HSDL1 (UniProt Q3SXM5) -0.03
HMGB1 (UniProt P09429) -0.025
HSF1 (UniProt Q00613) -0.001
HECTD3 (UniProt Q5T447) 0.002
HNRNPAB isoform 3 (UniProt Q99729) 0

compound: COc1cc2ncnc(Nc3ccc(F)c(Cl)c3)c2cc1OCCCN1CCOCC1 [gefitinib]; assay: as above
Method in brief: as §1

log2 fold change, inactive:
HSPA14 (UniProt Q0VDF9) 0.02
HEXIM1 (UniProt O94992) -0.014
HNRNPR (UniProt O43390) -0.1
HINT3 (UniProt Q9NQE9) -0.03
HMGN1 (UniProt P05114) -0.005
HNRNPDL (UniProt O14979) -0.029
HEMGN (UniProt Q9BXL5) -0.004
HMGCL (UniProt P35914) -0.021
HSPA13 (UniProt P48723) 0.002
HNRNPA1 (UniProt P09651) 0.006
HELQ (UniProt Q8TDG4) -0.177
HIF1AN (UniProt Q9NWT6) 0.09
HM13 isoform 2 (UniProt Q8TCT9) 0.026
HSD17B10 (UniProt Q99714) -0.021
HMG20A (UniProt Q9NP66) 0.01
HP1BP3 (UniProt Q5SSJ5) -0.015
HELZ (UniProt P42694) -0.02
HEPH isoform 3 (UniProt Q9BQS7) 0.041
HPRT1 (UniProt P00492) 0.035
HIKESHI (UniProt Q53FT3) -0.026
HNRNPUL1 (UniProt Q9BUJ2) -0.015
HNRNPA1 (UniProt H0YH80) 0.007
HNRNPA0 (UniProt Q13151) -0.077
HNRNPH1 (UniProt P31943) -0.028
HSD17B11 (UniProt Q8NBQ5) 0.039
HERC4 (UniProt Q5GLZ8) 0.016
HSDL1 (UniProt Q3SXM5) -0.037
HMGB1 (UniProt P09429) -0.131
HSF1 (UniProt Q00613) 0.03
HECTD3 (UniProt Q5T447) 0.014
HNRNPAB isoform 3 (UniProt Q99729) 0.03
